Measured values taken from PMC10567576.
No constants are given. Whether binding was seen depends on the method and setting. Binding seen in cells or lysates may run through a third protein. Some results given as binding are weak or reduced against the parent protein; the word gives no strength. Values belong to the binder of their own block, whether it stands above or below them.

Chains of the proteins cited; added tags and fusions are not shown. Residues count along the entry.
UniProt P18084, residues 715-769: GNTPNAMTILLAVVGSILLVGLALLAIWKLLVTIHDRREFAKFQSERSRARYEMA

Target: GFP–ITGβ5(715–769) (human) (UniProt P18084)
Assay: co-IP; HEK293T cells co-transfected with the GFP- and RFP-tagged constructs; after 48 h cross-linked with 0.5 mM DSP in PBS for 30 min at RT, quenched in 50 mM Tris-HCl, lysed in 1x RIPA buffer for 1 h at 4 °C; GFP-Trap magnetic agarose overnight at 4 °C; four washes with RIPA; western blot

binding: binds
B1: FCHo2_µHD–RFP (domain or fragment, UniProt Q3UQN2 520-809)
chain: ANTPTVGVSRGPSPVSLGNQDTLPVAIALTESVNAYFKGADPTKCIVKITGDVTISFPSGIIKVFTSNPSPAVLCFRVKNISRLEQILPNSQLVFSDPSQCDSNTKDFWMNMQAVTIYLKKLSEQNPAASYYNVDVLKYQVSSNGIQSTPLNLATYWKCSASTTDLRVDYKYNPEAMVAPSVLSNIQVVVPVDGGVTNMQSLPPAIWNAEQMKAFWKLSGISEKSDSGGSGSLRAKFDLSEGPSKPTTLAVQFLSEGNTLSGVDIELVGTGYRLSLVKKRFATGRYLADC

binding: no binding
B2: FCHo2_ΔµHD–RFP (domain or fragment, UniProt Q3UQN2 1-525)
chain: MVMAHFVENFWGEKNNGFDVLYHNMKHGQISTKELADFVRERATIEEAYSRSMTKLAKSASNYSQLGTFAPMWDVFKTSTEKLANCHLDLVRKLQELIKEVQKYGEEQVKSHKKTKEEVAGTLEAVQAIQNITQALQKSKENYTAKCVEQERLKKEGATQREIEKAAVKSKKATDTYKLYVEKYALTKADFEQKMTETAQKFQDIEETHLIHIKEIIGSLSNAVKEIHLQIGQVHEEFINNMANTTIESLIQKFAESKGTGKERPGLIEFEECDPASAVEGIKPRKRKTFALPGIIKKEKDAESVECPDADSLNIPDVDEEGFSIKPEANQNDTKENHFYSSSDSDSEDEEPKRYRIEIKPAHPNNLHHTMASLDELKVSIGNITLSPAVSRHSPVQMNRNSSNEELTKSKPSSLPTEKGTNDLLAWDPLFGSSLESSSAPLTSSSSARPTTPLSLGTLVPPPRPASRPKLASGKLSGINEIPRPFSPPVTSNTSPPPTAPLARAESSSSISSSASLSAANTPTV
